This is an account of results in patent publication US20240082431A1, “METALLOHYDROPORPHYRINS FOR PHOTOACOUSTIC IMAGING” (NIRvana Sciences, Inc., priority 2021, published 2024).

Each structure is given as a SMILES string. A unit is not stated for every read-out.

The series is described as follows: Photoacoustic imaging of dyes in agar phantoms (VEVO LAZR 2100, PA scanning mode 680-900 nm). The format is physicochemical. Conditions: agar phantom, at the indicated wavelength, 63 μM B107, 50 μM ICG in DMF. As for the experimental part:
Indocyanine Green (ICG), was obtained from Sigma-Aldrich (Catalogue No. I2633; Sigma-Aldrich Corp., St. Louis, Missouri, United States of America). The nickel bacteriochlorin B107 was prepared as described in Sun et al., 2013 and Chen et al, 2012. Each dye was dissolved in N,N-dimethylformamide (DMF) at the desired concentrations prior to the imaging experiments. Molds for preparing agar phantoms were typically 90 mm diameter glass Petri dishes.
A highly purified agar powder (Catalogue No. A7921; Sigma-Aldrich Corp., St. Louis, Missouri, United States of America) was dissolved in water (Reagent Grade, Type I) to a final concentration of 2.0% and heated to the melting temperature of 95° C. in a microwave oven. […] The bottle containing agar was held at 75-85° C. for 1-3 hours using a standard hot plate and a double boiler to avoid scorching (which causes a detectable increase in the absorption coefficient). This waiting period at an elevated temperature allows the slow release of air bubbles and produces an agar solution with negligible absorption and very low turbidity. […]
Photoacoustic imaging was performed using a VEVO® LAZR^2100 imaging system (VisualSonics, Inc., Toronto, Ontario, Canada) equipped with software version 1.7.2. […] The tubing and its associated image regions were isolated by ultrasound and PA signals for PA intensity quantitation. […]

For the molecule `CC1(C)C(/C=C/C=C/C=C/C=C2\N(CCCCS(=O)(=O)O)c3ccc4ccccc4c3C2(C)C)=[N+](CCCCS(=O)(=O)[O-])c2ccc3ccccc3c21` [ICG, Indocyanine Green], the PAI signal intensity reads like this: (depth 3 mm) 0.72; (depth 6 mm) 0.38.
